Measurements: patent US20160331662A1, “Compositions that Inhibit and Prevent the Formation of Dental Caries and Methods of Using the Same” (priority 2014, published 2016)
No constants are given. Whether binding was seen depends on the method and setting. Some results given as binding are weak or reduced against the parent protein; the word gives no strength.

Sequences of proteins named here, by UniProt entry; tags and fusion partners are left off. Residues count along the entry.
iSRCR123 (Q9UGM3, residues 102-463): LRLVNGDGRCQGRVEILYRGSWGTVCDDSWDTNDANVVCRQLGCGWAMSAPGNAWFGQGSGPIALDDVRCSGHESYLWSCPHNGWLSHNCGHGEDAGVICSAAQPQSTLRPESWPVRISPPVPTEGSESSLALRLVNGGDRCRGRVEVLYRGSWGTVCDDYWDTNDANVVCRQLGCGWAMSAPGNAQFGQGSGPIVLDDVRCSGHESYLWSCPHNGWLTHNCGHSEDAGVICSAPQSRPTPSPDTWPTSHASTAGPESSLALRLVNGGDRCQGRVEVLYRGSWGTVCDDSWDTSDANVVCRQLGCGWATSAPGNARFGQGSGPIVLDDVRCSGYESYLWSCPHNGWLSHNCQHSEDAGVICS
UniProt P16952, residues 39-1433: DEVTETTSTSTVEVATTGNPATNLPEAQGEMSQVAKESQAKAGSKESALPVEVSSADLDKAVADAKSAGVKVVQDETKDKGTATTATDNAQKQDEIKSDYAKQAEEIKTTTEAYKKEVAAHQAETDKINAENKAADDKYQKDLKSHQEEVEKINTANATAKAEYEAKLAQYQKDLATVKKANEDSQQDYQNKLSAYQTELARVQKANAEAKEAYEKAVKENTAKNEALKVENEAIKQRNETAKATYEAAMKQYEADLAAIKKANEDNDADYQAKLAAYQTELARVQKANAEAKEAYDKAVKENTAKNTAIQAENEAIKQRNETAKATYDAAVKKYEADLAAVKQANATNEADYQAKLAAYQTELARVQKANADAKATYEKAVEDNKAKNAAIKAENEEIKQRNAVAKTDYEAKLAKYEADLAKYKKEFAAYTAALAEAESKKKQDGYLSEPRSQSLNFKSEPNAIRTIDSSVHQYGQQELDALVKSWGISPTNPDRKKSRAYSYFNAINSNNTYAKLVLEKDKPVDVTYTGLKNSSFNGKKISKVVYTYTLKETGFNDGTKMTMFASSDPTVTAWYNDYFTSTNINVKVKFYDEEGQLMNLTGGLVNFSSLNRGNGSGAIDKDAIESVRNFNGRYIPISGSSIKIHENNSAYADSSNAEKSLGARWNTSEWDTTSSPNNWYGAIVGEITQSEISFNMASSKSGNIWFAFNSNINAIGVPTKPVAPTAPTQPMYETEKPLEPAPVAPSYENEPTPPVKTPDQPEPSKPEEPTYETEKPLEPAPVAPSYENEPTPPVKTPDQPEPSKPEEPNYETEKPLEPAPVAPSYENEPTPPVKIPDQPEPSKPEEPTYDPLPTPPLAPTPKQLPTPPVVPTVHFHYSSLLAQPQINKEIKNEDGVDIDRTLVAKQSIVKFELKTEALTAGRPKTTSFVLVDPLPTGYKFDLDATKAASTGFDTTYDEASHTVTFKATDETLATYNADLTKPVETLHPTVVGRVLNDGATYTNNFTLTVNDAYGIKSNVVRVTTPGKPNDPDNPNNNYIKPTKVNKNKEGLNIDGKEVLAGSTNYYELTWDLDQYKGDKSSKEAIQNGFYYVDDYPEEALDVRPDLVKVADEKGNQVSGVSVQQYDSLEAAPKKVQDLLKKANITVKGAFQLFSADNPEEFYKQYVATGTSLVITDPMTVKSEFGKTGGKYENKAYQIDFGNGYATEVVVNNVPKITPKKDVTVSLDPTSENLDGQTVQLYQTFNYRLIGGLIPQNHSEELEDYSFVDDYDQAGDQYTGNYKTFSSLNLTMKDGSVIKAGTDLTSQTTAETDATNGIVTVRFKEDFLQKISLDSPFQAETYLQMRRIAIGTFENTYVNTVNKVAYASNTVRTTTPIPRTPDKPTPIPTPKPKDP

Legend:
iSRCR123 (human) [1] = target: iSRCR123 (human) (UniProt Q9UGM3); test: SPR, iSRCR123 immobilized on CM5 chip, analyte 0.250-2.000 µM (self adhesion)
iSRCR1 (human) [2] = target: iSRCR1 (human) (UniProt Q9UGM3); test: SPR, iSRCR1 immobilized on CM5 chip, analyte 0.250-2.000 µM (self adhesion)
iSRCR123 (human) [3] = target: iSRCR123 (human) (UniProt Q9UGM3); test: SPR, self adhesion
iSRCR123 (human) [4] = target: iSRCR123 (human) (UniProt Q9UGM3); test: ELISA, fluorescently labeled analyte on coated iSRCR123; ELISA (FIG. 9)
iSRCR1 (human) [5] = target: iSRCR1 (human) (UniProt Q9UGM3); test: ELISA, fluorescently labeled analyte on coated iSRCR1; ELISA (FIG. 9)
iSRCR1 (human) [6] = target: iSRCR1 (human) (UniProt Q9UGM3); test: ELISA
iSRCR123 (human) [7] = target: iSRCR123 (human) (UniProt Q9UGM3); test: ELISA
iSRCR1 (human) [8] = target: iSRCR1 (human) (UniProt Q9UGM3); test: SPR, amount of 2 µM analyte bound to immobilized iSRCR1, calculated from RU
iSRCR1 (human) [9] = target: iSRCR1 (human) (UniProt Q9UGM3); test: SPR, iSRCR1 immobilized, 2 µM analyte, buffer with 2.5 mM CaCl2
iSRCR1 (human) [10] = target: iSRCR1 (human) (UniProt Q9UGM3); test: SPR, iSRCR1 immobilized, 2 µM fragment alone or incubated with SRCRP2 peptide
iSRCR1 (human) [11] = target: iSRCR1 (human) (UniProt Q9UGM3); test: fluorescence ELISA, iSRCR1 coated (dashed lines), fragment labelled with Alexa Fluor 488 anti-His antibody, 1 ng-1 µg

Measured: binding

iSRCR123 (from UniProt Q9UGM3 102-463) (receptor)
binds: iSRCR123 (human) [1] | iSRCR1 (human) [2]

iSRCR1 (from UniProt Q9UGM3 102-202) (receptor)
binds: iSRCR123 (human) [3] | iSRCR123 (human) [1] | iSRCR1 (human) [2]

FL^SspB (S. gordonii DL1 SspB, residues 39-1433) (from UniProt P16952 39-1433)
not listed: iSRCR123 (human) [1] | iSRCR1 (human) [2] | iSRCR123 (human) [3]
binds: all other assays above
